Laboratory results from article PMC4884786.
Where a chain is given by its changes, count along the chain named. These are yes or no findings as the source states them, for the method shown. Binding seen in cells or lysates may run through a third protein. Some results given as binding are weak or reduced against the parent protein; the word gives no strength. For some of these results: Tags and fused reporters may be left off the sequences shown. Blank lines part the entries; values can stand above or below the substance they belong to.

The chains behind the UniProt entries cited, without tags or fusion partners.
UniProt Q9UF56: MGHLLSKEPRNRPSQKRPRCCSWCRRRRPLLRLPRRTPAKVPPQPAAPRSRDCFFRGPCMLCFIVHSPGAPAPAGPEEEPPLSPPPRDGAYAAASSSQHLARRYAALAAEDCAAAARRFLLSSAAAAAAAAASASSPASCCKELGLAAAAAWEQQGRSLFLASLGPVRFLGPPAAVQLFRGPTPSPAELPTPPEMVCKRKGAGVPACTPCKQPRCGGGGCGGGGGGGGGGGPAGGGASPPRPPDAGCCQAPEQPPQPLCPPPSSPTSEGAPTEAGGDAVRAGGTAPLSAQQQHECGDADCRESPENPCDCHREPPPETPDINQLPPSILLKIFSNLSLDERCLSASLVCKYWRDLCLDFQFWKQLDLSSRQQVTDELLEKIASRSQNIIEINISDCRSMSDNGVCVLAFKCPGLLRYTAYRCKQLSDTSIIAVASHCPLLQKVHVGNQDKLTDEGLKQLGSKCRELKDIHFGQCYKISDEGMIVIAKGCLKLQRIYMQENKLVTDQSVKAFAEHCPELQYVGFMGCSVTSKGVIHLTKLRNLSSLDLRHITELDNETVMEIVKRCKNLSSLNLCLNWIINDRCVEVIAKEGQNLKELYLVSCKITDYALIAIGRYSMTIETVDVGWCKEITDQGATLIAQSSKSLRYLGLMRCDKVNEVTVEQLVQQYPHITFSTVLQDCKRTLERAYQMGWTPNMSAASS
UniProt P63208: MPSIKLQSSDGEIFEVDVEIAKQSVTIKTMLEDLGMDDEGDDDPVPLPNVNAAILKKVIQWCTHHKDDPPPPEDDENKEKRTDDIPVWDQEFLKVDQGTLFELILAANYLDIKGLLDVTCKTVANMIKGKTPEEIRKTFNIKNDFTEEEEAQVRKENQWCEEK
UniProt P08151: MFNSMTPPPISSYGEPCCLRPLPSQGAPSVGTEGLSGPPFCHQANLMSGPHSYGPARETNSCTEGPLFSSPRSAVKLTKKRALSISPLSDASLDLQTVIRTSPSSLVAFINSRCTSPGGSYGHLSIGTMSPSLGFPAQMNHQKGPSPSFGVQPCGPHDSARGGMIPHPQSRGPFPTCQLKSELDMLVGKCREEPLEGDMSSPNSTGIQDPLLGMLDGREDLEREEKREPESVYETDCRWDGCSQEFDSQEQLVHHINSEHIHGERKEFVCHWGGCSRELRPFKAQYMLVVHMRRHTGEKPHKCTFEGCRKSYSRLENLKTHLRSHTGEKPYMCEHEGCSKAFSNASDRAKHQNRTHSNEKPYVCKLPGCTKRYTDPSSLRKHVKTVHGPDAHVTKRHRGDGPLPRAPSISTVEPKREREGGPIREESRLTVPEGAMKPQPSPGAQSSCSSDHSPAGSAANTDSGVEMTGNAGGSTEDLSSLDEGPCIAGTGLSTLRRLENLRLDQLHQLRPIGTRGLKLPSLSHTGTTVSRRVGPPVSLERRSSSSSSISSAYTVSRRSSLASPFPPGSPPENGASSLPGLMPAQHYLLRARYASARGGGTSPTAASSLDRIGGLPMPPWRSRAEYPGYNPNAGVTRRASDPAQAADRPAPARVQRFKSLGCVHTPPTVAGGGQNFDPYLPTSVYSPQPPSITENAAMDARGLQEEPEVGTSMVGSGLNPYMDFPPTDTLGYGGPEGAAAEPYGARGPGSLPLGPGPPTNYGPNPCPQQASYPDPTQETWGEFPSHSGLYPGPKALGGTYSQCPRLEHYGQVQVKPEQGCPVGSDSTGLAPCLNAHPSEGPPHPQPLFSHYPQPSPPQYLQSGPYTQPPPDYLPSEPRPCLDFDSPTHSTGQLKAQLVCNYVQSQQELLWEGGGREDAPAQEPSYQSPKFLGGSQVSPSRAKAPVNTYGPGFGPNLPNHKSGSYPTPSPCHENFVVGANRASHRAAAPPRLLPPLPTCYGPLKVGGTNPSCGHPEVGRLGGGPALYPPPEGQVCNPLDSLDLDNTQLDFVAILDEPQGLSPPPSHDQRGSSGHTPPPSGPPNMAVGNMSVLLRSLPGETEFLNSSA

Experiments:
[1] = target: T1, Sufu (Suppressor of fused), endogenous, human cells (human (endogenous in HEK293T, PC3, DAOY)) (UniProt Q9UMX1); test: co-IP; endogenous Sufu immunoprecipitated: from PC3 and DAOY cells treated with MLN4924 (2 μM, 5 h), and from HEK293T cells co‐transfected with HA‐ubiquitin, Myc‐Fbxl17 and Flag‐Gli1, with MG132 (10 μM)
T1 sequence: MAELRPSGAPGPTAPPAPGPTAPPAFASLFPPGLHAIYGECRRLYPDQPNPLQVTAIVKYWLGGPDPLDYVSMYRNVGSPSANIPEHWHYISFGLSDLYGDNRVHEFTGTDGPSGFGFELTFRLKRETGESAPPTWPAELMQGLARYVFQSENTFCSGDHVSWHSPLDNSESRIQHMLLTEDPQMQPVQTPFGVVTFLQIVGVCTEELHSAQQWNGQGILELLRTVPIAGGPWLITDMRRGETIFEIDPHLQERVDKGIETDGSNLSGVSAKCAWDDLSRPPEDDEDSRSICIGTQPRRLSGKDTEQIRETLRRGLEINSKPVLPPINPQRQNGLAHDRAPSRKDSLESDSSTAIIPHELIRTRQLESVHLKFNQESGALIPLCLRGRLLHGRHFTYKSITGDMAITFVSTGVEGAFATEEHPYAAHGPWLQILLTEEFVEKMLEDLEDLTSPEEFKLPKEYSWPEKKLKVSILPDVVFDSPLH

[2] = target: T2, HA‐tagged Sufu wild type (WT) (UniProt Q9UMX1); test: co-IP; HA‐tagged Sufu immunoprecipitated from Ptch1−/− MEFs (200 μg of whole‐cell lysate), with expression of Myc‐tagged Fbxl17 or depletion of Fbxl17 by two siRNAs; Flag‐Gli1 detected
T2 sequence: T1 sequence

[3] = target: 3×Flag‐tagged Fbxl17 (F‐box and leucine‐rich repeat protein 17) (human) (UniProt Q9UF56); test: co-IP; Flag‐tagged F‐box proteins immunoprecipitated from HEK293T cells treated with MLN4924 (2 μM, 5 h); endogenous Sufu and Skp1 detected
[4] = target: T3, Sufu, endogenous, Ptch1−/− mouse embryonic fibroblasts (mouse (endogenous in MEFs)) (UniProt Q9Z0P7); test: co-IP; endogenous Sufu immunoprecipitated from cytoplasmic and nuclear extracts of Ptch1−/− MEFs expressing HA‐tagged Fbxl17
T3 sequence: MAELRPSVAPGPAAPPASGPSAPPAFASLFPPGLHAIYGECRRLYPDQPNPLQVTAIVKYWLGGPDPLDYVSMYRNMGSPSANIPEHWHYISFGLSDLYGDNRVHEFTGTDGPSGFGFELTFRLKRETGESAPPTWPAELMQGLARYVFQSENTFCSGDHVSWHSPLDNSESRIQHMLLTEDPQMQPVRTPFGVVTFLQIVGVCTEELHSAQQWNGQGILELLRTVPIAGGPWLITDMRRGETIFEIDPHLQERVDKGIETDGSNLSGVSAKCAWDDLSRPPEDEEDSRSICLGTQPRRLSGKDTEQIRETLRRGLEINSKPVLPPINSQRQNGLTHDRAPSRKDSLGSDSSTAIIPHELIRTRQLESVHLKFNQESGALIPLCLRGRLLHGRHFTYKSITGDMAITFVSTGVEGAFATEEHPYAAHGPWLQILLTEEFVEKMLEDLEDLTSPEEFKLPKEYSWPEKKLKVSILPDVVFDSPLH

Sufu 351–372 peptide = target: T4, Sufu 351–372 peptide; test: pull-down; Sufu peptides conjugated to CNBr‐activated Sepharose, incubated with lysates of HEK293T cells transfected with Myc‐tagged Fbxl17; only the target purified
T4 sequence (peptide): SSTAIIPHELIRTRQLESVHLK

Sufu 340–360 peptide = target: T5, Sufu 340–360 peptide; test: as above
T5 sequence (peptide): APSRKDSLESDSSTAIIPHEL

[5] = target: T6, Sufu 340–360 [S352P/T353P] peptide; test: as above
T6 sequence (peptide, phosphorylated on the residues S352 and T353): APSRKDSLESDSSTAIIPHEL

HA‐tagged Sufu S352D = target: T7, HA‐tagged Sufu S352D (UniProt Q9UMX1); test: co-IP; HA‐Sufu (wild type, truncated fragments, point mutants) immunoprecipitated from HEK293T cells co‐transfected with Myc‐tagged Fbxl17, treated with MLN4924 (2 μM, 5 h); Myc‐Fbxl17 detected
T7 sequence: T1 sequence with S352D

HA‐tagged Sufu S342/6D = target: T8, HA‐tagged Sufu S342/6D (UniProt Q9UMX1); test: as above
T8 sequence: T1 sequence with S342D, S346D

[6] = target: T9, HA‐Sufu 350–484‐truncated mutant (UniProt Q9UMX1); test: as above
T9 sequence: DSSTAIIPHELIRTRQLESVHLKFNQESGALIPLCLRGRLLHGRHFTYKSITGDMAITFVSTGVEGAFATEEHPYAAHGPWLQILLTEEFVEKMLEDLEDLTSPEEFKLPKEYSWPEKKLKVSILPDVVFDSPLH

HA‐tagged Sufu S342/6A = target: T10, HA‐tagged Sufu S342/6A (UniProt Q9UMX1); test: as above
T10 sequence: T1 sequence with S342A, S346A

[7] = target: T11, HA‐tagged Sufu deletion construct 350–425 (UniProt Q9UMX1); test: as above
T11 sequence: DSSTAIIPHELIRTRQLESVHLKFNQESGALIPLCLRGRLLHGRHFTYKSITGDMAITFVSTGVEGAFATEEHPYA

HA‐tagged Sufu S352F = target: T12, HA‐tagged Sufu S352F (UniProt Q9UMX1); test: as above
T12 sequence: T1 sequence with S352F

[8] = target: T2, HA‐tagged Sufu wild type (WT); test: as above
[9] = target: T13, HA‐tagged Sufu full‐length, synthesized in vitro (UniProt Q9UMX1); test: pull-down; in vitro synthesized HA‐tagged Sufu full length bound to Protein G–Sepharose beads (positive control), incubated with lysates of HEK293T cells transfected with Myc‐tagged Fbxl17
T13 sequence: T1 sequence

binding [1]: binds
Substance: Fbxl17, endogenous (from UniProt Q9UF56 1-701)

binding [3]: binds
Substance: Skp1 (S‐phase kinase‐associated protein 1) (from UniProt P63208 1-163)

binding [4]: binds
Substance: HA‐tagged Fbxl17 (from UniProt Q9UF56 1-701)

More lines, now with the values behind:

Substance: Flag‐tagged Gli1 (Glioma‐associated oncogene homolog 1) (from UniProt P08151 1-1106)
binding [2]: binds

Substance: Myc‐tagged Fbxl17 (from UniProt Q9UF56 1-701)
binding (Sufu 351–372 peptide): no binding
binding (Sufu 340–360 peptide): no binding
binding [5]: no binding
binding [1]: binds
binding (HA‐tagged Sufu S352D): binds
binding (HA‐tagged Sufu S342/6D): binds
binding [6]: binds
binding (HA‐tagged Sufu S342/6A): binds
binding [7]: binds
binding (HA‐tagged Sufu S352F): binds
binding [8]: binds
binding [9]: binds
